Results as given in paper PMC7232412.
No constants are given. Whether binding was seen depends on the method and setting. Some binding calls cover weakened binding; strength is not graded here.

Chains of the proteins cited; added tags and fusions are not shown. Lines headed by an entry give the natural chain unless they say otherwise; changes in a name come on top. A line that says so, or that is headed by a name, gives the form on record, which may keep a tag or linker.
UniProt Q99816: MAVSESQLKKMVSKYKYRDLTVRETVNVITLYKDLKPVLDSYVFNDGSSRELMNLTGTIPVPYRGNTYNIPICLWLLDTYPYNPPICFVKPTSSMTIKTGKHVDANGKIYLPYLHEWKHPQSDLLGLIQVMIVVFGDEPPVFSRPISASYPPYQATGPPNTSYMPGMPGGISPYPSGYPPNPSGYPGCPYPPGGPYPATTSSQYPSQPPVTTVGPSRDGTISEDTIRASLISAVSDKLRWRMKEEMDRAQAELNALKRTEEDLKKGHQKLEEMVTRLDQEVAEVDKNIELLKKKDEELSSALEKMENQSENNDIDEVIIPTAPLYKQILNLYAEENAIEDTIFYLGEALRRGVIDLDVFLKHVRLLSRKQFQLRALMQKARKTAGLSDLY
human Tsg101 KK9,10AA (Q99816, form named): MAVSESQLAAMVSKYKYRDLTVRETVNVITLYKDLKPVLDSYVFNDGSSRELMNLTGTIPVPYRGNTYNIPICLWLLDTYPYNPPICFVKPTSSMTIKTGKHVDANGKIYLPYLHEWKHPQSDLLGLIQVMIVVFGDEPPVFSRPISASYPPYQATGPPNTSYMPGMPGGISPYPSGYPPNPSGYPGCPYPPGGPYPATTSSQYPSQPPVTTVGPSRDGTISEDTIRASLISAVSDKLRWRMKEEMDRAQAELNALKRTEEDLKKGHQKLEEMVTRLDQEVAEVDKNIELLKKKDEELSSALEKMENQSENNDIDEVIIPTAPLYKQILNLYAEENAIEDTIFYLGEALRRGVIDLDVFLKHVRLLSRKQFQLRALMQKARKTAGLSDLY

Molecular target: HIV-1 Gag p6 (pGBT p6) (HIV-1) (UniProt P04591)
Assay: two-hybrid

Question: How did the binding turn out when “human Tsg101 wild-type (pGAD-hTsg101) (from UniProt Q99816 1-390)” was run?
Answer: The binding was “binds”.

Question: “human Tsg101 KK9,10AA (from UniProt Q99816 1-390)” was tested. Which binding did it give?
Answer: Its binding is “binds”.
